Reference: patent US20200362300A1 (OSE IMMUNOTHERAPEUTICS, published 2020)
No constants are given. Whether binding was seen depends on the method and setting. Some results given as binding are weak or reduced against the parent protein; the word gives no strength. Where a sequence is shown, tags or fusion partners need not be part of it.

Molecular target: T1, CD127-Fc (Sino Biological) (UniProt P16871)
T1 sequence (looked up): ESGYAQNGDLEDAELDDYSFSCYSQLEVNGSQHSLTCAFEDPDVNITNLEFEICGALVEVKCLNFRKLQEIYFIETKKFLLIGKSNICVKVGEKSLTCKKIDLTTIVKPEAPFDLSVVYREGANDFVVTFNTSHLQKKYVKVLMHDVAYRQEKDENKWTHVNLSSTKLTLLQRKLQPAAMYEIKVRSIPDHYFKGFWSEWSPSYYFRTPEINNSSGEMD
Test: SPR (Biacore), CD127-Fc immobilised

- binding: binds
B1: Effi3-VH3VL3 (antibody, V domains shown)
VH: AVQLVESGGGLVQPGGSLKITCAASGFTFTNAAMYWVRQAPGKGLEWVARIRTKANNYATYYADSVKGRFTISRDDSKSTVYLQMDSVKTEDTATYYCIVVVLTTTRDYFDYWGQGVLVTVSS
VL: DIVLTQSPSSLPVTPGEPASISCRSSQSLLTVKGITSLYWFLQKPGQSPKLLIYRMSNRDSGVPDRFSGSGSETDFTLKISRVEAEDVGTYYCAQFLEYPHTFGAGTKLELKR
notes: also called Effi3-VH3L3; Effi3 clone VH3VL3
